Here are results for 36 targets from the supplement of paper PMC12067093, “Discovery and optimisation of a covalent ligand for TRIM25 and its application to targeted protein ubiquitination” (Chemical Science, 2025).

Amino acid sequences for entries named in this document (tags omitted). A change or cut given only in a name is not applied to a line headed by its entry.
UniProt P46940, whole entry, looked up: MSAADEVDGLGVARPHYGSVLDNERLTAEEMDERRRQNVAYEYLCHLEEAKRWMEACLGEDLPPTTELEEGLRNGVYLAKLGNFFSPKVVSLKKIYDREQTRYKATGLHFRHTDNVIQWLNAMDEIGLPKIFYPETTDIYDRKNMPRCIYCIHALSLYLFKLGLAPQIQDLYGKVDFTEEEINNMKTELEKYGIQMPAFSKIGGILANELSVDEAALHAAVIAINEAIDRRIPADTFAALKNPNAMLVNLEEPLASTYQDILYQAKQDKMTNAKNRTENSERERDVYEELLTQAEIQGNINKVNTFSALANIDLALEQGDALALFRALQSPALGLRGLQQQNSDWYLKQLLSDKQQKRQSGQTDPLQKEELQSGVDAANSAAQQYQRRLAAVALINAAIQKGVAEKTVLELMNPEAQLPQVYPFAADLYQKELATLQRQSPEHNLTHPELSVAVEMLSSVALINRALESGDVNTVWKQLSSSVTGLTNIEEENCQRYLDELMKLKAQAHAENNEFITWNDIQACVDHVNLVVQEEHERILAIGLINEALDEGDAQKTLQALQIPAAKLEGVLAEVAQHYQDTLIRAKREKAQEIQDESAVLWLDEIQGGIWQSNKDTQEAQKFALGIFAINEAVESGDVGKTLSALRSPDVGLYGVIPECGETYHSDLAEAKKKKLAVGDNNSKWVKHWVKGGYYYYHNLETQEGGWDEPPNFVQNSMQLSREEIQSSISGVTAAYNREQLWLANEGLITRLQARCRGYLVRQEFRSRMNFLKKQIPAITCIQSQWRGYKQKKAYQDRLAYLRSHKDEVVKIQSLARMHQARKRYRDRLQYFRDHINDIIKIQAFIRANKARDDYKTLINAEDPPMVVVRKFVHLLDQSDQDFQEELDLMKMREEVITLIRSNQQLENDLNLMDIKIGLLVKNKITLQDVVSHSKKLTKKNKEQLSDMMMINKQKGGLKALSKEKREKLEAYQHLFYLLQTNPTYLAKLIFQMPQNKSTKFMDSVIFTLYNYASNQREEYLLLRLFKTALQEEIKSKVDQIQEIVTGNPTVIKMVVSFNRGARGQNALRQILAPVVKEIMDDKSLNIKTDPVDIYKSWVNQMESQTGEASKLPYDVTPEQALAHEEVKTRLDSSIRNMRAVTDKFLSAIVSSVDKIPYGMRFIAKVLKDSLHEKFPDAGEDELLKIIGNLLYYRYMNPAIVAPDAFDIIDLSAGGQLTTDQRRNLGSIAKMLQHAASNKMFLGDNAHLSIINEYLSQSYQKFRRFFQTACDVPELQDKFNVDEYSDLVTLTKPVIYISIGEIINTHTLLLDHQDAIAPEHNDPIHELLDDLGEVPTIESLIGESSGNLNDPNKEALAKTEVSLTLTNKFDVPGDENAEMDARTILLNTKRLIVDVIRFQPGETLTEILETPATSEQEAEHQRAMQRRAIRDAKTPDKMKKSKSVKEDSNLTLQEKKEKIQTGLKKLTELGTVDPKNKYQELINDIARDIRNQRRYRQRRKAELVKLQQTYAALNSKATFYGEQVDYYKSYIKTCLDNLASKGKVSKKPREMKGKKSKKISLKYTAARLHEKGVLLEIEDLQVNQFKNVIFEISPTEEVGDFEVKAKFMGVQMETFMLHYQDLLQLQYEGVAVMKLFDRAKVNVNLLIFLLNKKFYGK
UniProt Q92835: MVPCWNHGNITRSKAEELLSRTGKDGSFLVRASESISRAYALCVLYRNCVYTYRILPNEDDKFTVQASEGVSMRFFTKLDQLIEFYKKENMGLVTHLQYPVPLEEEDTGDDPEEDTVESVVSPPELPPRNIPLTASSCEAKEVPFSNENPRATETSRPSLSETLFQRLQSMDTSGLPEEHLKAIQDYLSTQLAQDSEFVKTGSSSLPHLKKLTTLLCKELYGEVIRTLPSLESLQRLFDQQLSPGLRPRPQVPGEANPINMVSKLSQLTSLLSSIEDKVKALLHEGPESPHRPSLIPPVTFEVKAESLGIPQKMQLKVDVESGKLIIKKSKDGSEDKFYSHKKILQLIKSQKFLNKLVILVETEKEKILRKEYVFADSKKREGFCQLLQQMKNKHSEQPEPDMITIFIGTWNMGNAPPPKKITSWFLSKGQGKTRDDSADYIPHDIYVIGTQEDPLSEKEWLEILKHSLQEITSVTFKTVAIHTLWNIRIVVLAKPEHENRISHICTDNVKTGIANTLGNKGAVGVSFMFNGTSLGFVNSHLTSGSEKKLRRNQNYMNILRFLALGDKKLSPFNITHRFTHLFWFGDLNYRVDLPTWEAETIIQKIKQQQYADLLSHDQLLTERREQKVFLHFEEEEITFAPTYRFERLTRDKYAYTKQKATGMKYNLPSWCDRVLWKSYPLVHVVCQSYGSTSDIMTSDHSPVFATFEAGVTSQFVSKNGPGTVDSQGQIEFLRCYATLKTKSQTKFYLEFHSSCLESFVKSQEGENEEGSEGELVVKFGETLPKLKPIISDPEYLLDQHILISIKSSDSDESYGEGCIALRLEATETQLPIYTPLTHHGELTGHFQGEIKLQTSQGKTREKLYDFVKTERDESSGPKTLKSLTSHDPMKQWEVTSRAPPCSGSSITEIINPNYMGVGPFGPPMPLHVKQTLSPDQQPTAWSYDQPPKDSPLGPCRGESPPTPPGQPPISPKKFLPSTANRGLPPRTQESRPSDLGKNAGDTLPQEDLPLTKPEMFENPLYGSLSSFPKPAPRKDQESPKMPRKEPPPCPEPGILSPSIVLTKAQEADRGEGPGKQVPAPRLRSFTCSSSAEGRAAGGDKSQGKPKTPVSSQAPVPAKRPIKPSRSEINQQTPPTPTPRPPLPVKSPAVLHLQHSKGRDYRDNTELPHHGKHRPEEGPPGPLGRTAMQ
UniProt P05107, whole entry, looked up: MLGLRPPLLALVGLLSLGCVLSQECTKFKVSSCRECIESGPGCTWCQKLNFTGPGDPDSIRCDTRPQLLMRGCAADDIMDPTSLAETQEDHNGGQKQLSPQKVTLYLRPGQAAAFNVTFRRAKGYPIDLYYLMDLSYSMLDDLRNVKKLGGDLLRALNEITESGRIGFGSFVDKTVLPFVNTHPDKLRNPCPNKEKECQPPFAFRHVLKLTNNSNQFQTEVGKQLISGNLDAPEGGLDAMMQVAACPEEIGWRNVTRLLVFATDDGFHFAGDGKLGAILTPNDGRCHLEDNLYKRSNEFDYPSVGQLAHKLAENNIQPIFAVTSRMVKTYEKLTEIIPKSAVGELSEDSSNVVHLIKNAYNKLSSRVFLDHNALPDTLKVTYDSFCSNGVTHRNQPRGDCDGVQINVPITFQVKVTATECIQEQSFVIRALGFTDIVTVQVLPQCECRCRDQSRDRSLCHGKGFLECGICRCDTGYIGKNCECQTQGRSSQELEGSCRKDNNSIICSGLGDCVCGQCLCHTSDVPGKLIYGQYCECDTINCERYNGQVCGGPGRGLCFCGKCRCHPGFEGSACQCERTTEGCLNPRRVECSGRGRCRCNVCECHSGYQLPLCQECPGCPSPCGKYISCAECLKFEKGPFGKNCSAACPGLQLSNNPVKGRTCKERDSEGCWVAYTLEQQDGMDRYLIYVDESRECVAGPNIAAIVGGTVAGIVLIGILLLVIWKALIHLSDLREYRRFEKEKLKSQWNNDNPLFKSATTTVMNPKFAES
UniProt Q9NVM9, whole entry, looked up: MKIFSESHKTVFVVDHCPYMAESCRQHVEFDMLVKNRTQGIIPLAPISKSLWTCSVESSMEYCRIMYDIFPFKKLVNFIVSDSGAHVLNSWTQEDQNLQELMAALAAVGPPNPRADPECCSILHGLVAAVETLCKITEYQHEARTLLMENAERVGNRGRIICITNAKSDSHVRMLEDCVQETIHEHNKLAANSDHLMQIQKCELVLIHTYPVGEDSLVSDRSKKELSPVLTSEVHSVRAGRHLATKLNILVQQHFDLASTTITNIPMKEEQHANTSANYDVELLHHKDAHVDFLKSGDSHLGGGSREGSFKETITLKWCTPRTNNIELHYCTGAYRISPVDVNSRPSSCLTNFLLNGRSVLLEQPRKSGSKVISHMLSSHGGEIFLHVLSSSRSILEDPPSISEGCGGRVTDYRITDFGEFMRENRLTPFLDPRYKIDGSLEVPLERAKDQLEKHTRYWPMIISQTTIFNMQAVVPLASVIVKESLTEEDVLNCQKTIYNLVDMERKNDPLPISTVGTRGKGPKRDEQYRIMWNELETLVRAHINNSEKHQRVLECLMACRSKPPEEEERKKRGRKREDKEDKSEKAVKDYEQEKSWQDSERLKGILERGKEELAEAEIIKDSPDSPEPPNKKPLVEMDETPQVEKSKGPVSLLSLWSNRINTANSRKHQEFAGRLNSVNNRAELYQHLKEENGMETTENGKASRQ
UniProt Q8N201, whole entry, looked up: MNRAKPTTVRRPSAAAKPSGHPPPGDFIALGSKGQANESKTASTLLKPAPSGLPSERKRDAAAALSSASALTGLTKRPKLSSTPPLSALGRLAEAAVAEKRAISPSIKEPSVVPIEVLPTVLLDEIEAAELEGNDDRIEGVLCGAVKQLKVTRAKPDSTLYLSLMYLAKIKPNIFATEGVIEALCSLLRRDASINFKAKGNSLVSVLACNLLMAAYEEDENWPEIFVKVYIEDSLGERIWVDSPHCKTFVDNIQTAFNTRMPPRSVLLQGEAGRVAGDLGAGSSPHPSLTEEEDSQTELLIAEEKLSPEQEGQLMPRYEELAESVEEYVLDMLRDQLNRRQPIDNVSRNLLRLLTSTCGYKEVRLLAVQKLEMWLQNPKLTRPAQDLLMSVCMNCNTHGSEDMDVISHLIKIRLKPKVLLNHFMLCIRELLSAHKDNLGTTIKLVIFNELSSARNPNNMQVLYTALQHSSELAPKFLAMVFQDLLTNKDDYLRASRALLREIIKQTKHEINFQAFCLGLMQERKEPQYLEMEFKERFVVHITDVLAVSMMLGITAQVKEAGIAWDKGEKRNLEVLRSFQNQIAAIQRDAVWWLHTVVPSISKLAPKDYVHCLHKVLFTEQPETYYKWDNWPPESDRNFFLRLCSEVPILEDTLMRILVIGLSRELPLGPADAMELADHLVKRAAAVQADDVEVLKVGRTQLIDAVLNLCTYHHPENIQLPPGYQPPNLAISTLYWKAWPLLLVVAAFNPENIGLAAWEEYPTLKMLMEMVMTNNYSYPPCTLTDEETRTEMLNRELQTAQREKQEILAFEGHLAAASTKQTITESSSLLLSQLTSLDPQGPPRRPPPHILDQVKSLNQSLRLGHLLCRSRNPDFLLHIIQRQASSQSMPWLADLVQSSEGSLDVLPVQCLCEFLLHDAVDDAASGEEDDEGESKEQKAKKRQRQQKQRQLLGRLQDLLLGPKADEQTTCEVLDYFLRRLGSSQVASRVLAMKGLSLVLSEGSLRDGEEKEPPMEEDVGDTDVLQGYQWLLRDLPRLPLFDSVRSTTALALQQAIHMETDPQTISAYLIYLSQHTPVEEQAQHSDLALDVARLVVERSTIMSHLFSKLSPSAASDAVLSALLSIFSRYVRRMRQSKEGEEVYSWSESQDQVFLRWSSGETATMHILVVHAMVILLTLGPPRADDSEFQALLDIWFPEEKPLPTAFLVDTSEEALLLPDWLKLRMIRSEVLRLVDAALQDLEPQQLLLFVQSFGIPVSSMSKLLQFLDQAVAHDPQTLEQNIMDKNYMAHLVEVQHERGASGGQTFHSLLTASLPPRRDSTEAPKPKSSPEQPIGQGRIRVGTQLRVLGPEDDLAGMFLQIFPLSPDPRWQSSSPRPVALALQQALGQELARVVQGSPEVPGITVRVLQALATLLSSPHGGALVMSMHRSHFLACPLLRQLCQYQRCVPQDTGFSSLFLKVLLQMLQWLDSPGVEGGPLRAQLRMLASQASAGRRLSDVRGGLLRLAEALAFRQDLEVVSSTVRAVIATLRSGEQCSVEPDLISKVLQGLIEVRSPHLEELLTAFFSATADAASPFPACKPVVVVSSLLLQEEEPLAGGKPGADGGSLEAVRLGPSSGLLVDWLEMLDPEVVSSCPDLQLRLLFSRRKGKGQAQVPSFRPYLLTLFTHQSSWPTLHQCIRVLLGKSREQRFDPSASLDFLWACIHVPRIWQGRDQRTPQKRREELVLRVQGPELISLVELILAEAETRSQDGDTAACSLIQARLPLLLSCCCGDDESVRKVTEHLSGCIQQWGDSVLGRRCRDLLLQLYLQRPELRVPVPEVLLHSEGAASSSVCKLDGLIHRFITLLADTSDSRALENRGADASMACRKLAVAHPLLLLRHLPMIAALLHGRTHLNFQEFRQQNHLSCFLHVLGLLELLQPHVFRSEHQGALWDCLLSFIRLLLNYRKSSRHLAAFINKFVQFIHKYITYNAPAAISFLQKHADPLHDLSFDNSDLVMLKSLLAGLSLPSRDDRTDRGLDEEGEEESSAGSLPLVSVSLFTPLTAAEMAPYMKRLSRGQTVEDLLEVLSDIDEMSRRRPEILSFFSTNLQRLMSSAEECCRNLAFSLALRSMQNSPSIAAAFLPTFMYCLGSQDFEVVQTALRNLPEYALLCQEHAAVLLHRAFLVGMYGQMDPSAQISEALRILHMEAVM

The list shows a part of the results.

Compound in the test: CC1Cc2ccccc2N1C(=O)C1CCCN(C1)C(=O)CCl (mixture of isomers) [TRIM25 ligand 11 (diastereomer mixture)]
Put plainly: probe-labelled cysteine peptide fold change vs DMSO (competition) (log2 fold change); higher = less target engagement (more negative = stronger competition). Conditions: THP-1, incubation time: 4 h.
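Also: competitive chemoproteomic profiling in live THP-1 cells with an iodoacetamide desthiobiotin (IA-DTB) probe, comparing probe-labelled peptide intensities in compound-treated cells against DMSO-treated controls.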

On to “IRS2_Q9Y4H2_409_SHTLSGGCGGR (UniProt Q9Y4H2)”, for which the “probe-labelled cysteine peptide fold change” value by setting is: (10 µM) 0.0411; (50 µM) -0.153.
On the same counts, the results for “ITGA4_P13612_861_VCALEQQK (UniProt P13612)” are -0.00319 and 0.157.
As to “IQGAP1_P46940_1270_RFFQTACDVPELQDK (UniProt P46940)”, the “probe-labelled cysteine peptide fold change” value (10 µM) stood at 0.138 and the “probe-labelled cysteine peptide fold change” value (50 µM) worked out at 0.115.
On to “ISG15_P05161_78_LAVHPSGVALQDRVPLASQGLGPGSTVLLVVDKCDEPLSILVR (UniProt P05161)”, for which the “probe-labelled cysteine peptide fold change” value is, setting by setting: (10 µM) -0.0389; (50 µM) -0.393.
Take “IRF8_Q02556_306_VFCSGNAVVCK (UniProt Q02556)”: the “probe-labelled cysteine peptide fold change” value (10 µM) came to 0.0194 and the “probe-labelled cysteine peptide fold change” value (50 µM) was 0.142.
On the same counts, the results for “INPP5D_Q92835_217_LTTLLCK (UniProt Q92835)” are 0.0443 and 0.0869.
On the same counts, the results for “ITGB2_P05107_582_TTEGCLNPR (UniProt P05107)” are 0.133 and -0.00128.
On the same counts, the results for “INPP5D_Q92835_1050_KEPPPCPEPGILSPSIVLTK (UniProt Q92835)” are -0.0387 and -0.231.
In the case of “ISG15_P05161_78_CDEPLSILVR (UniProt P05161)”, the “probe-labelled cysteine peptide fold change” value reads like this: (10 µM) 0.297; (50 µM) 0.364.
Take “INTS13_Q9NVM9_556_VLECLMACR (UniProt Q9NVM9)”: the “probe-labelled cysteine peptide fold change” value is, setting by setting: (10 µM) -0.0972; (50 µM) 0.0314.
With “INTS1_Q8N201_611_DYVHCLHK (UniProt Q8N201)”, the “probe-labelled cysteine peptide fold change” value is, setting by setting: (10 µM) 0.0589; (50 µM) 0.116.
On the same counts, the results for “IRF2BP2_Q7Z5L9_521_LEDTHFVQCPSVPSHK (UniProt Q7Z5L9)” are 0.038 and -0.00735.
On the same counts, the results for “IPO7_O95373_90_ETAPGDISPYTIPEEDRHCIR (UniProt O95373)” are 0.0712 and 0.0748.
On the same counts, the results for “IPO5_O00410_733_VAAAESMPLLLECAR (UniProt O00410)” are -0.0623 and -0.134.
On to “INSR_P06213_825_IELQACNQDTPEER (UniProt P06213)”, for which the “probe-labelled cysteine peptide fold change” value was -0.0166 (10 µM) and -0.0546 (50 µM).
On the same counts, the results for “ISL2_Q96A47_114_DSVYHIECFR (UniProt Q96A47)” are -0.053 and -0.122.
On the same counts, the results for “IRGQ_Q8WZA9_28_SALIAALCDK (UniProt Q8WZA9)” are -0.00885 and -0.0219.
On the same counts, the results for “ITGB2_P05107_286_CHLEDNLYKR (UniProt P05107)” are -0.0811 and 0.0597.
Regarding “IPO4_Q8TEX9_566+574_AVGEPMRPLAEECCQLGLGLCDQVDDPDLRR (UniProt Q8TEX9)”, the “probe-labelled cysteine peptide fold change” value runs as follows: (10 µM) 0.00426; (50 µM) -0.00248.
On the same counts, the results for “IPO13_O94829_309_QAVQNGDMETSHGICR (UniProt O94829)” are 0.223 and 0.203.
Turning to “ITGAL_P20701_845_PHSQIPVSCEELPEESR (UniProt P20701)”, the “probe-labelled cysteine peptide fold change” value (10 µM) was -0.0366 and the “probe-labelled cysteine peptide fold change” value (50 µM) was -0.035.
Take “INVS_Q9Y283_702_GQSACVHFRPNEGSDGSR (UniProt Q9Y283)”: the “probe-labelled cysteine peptide fold change” value reads like this: (10 µM) 0.00109; (50 µM) -0.0469.
On the same counts, the results for “INTS6_Q9UL03_211_SYSVCSPR (UniProt Q9UL03)” are 0.0134 and -0.135.
On the same counts, the results for “INTS3_Q68E01_740_LLCHLTPSIYTEFPDETLR (UniProt Q68E01)” are 0.222 and 0.238.
On the same counts, the results for “IPO5_O00410_560_TIECISLIGLAVGK (UniProt O00410)” are 0.00556 and 0.0463.
Take “IPO5_O00410_1017_EEAVQTFNYLCDLIESNHPIVLGPNNTNLPK (UniProt O00410)”: the “probe-labelled cysteine peptide fold change” value (10 µM) is -0.0886 and the “probe-labelled cysteine peptide fold change” value (50 µM) was -0.183.
On the same counts, the results for “INTS1_Q8N201_867_LGHLLCR (UniProt Q8N201)” are 0.0521 and 0.031.
On the same counts, the results for “IQGAP1_P46940_45_RQNVAYEYLCHLEEAK (UniProt P46940)” are 0.053 and 0.173.
Take “IPO5_O00410_348_MACGLGGK (UniProt O00410)”: the “probe-labelled cysteine peptide fold change” value reads like this: (10 µM) -0.00928; (50 µM) -0.0308.
As to “IP6K1_Q92551_248_KCEQSTSATLGVR (UniProt Q92551)”, the “probe-labelled cysteine peptide fold change” value (10 µM) is -0.0326 and the “probe-labelled cysteine peptide fold change” value (50 µM) was -0.0539.
On the same counts, the results for “IRF9_Q00978_241_VVGEAQVQSLDCR (UniProt Q00978)” are -0.0252 and -0.0765.
On the same counts, the results for “INTS13_Q9NVM9_331_TNNIELHYCTGAYR (UniProt Q9NVM9)” are 0.0141 and 0.113.
With “INTS14_Q96SY0_218_CGHLTADVQVFPRPEPFVVDEEIDPIPK (UniProt Q96SY0)”, the “probe-labelled cysteine peptide fold change” value reads like this: (10 µM) 0.119; (50 µM) 0.0109.
Regarding “IRF2BP1_Q8IU81_546_AQGPAGEVYCPSGDK (UniProt Q8IU81)”, the “probe-labelled cysteine peptide fold change” value runs as follows: (10 µM) -0.121; (50 µM) -0.00493.
On the same counts, the results for “INTS13_Q9NVM9_494_ESLTEEDVLNCQK (UniProt Q9NVM9)” are -0.166 and 0.107.
On the same counts, the results for “INTS13_Q9NVM9_349_ISPVDVNSRPSSCLTNFLLNGR (UniProt Q9NVM9)” are 0.0201 and -0.178.
